The source of these data is patent US20220153864A1.

The target in the assay is recombinant cynomolgus GPC3 (cyGPC3) (R&D Systems) (cynomolgus). Put plainly: ELISA, cyGPC3 coated, binder titrated to 100 nM, detection anti-human IgG Fc-HRP or anti-NGAL-HRP, signal normalized. (In general: In an ELISA, binding on a coated surface is turned into a signal by an enzyme label.)

These are yes or no findings as the source states them, for the method shown. Some entries that bind do so weakly or less than the wild type. Tags and fused reporters may be left off the sequences shown.

B1: GPC3 antibody as included in the fusion protein (SEQ ID NOs: 81 and 82) (antibody, human IgG4 S228P, kappa, F234A L235A, V domains shown)
VH: QVQLVQSGAEVKKPGASVKVSCKASGYTFTDYEMHWVRQAPGQGLEWMGALDPKTGDTAYSQKFKGRVTLTADKSTSTAYMELSSLTSEDTAVYYCTRFYSYTYWGQGTLVTLVS
VL: DVVMTQSPLSLPVTPGEPASISCRSSQSLVHSNRNTYLHWYLQKPGQSPQLLIYKVSNRFSGVPDRFSGSGSGTDFTLKISRVEAEDVGVYYCSQNTHVPPTFGQGTKLEIKR
B1: the binding result is “binds”.
